# Experimental data as given in PubChem BioAssay AID540256 (National Center for Advancing Translational Sciences (NCATS), 2011).
# Several values for one entry are separate records, joined by “and”; a condition that tells them apart may be missing. Equal entries are not always repeated. The campaign covered roughly 300,000 compounds. About 3,700 (1.2%) were called active. Inconclusive means that the source gave no clear call. Such entries were picked first, then a sample of the others. Calls come from the whole dose curve; tested in HEK293 cells. Potencies beside an inconclusive call are fits to weak or partial responses and may not hold up.
# Test: qHTS for Inhibitors of binding or entry into cells for Lassa Virus; note: nearly all actives have a fitted effect of over 50% in size
# Conditions: Lassa virus pseudotype entry inhibition, cell reporter; series mostly up to 37.9 µM
# Potency is the fitted concentration of half-maximal effect.
row,Structure (SMILES),Potency
1,CC(c1ccccc1)c1nnc(NC(=O)Nc2ccccc2)s1 (configuration not stated),"inconclusive: 35.5 µM [inhibitor, single point]"
2,CCOc1ccc(C(=O)N[C@H](C(=O)NNC(=O)c2cccs2)C(C)C)cc1,"inconclusive: 35.5 µM [activator, single point]"
3,O=C(CSC1=NCCS1)Nc1ccc(F)cc1,inactive
4,COc1ccc2cc(-c3cc(C(=O)OCC(=O)NC4CCS(=O)(=O)C4)c4ccccc4n3)ccc2c1 (configuration not stated),active: 3.55 µM
5,CCOC(=O)N1CCN(C(=O)CC(C(=O)N2CCc3ccccc32)n2ccnc2)CC1 (configuration not stated),inactive
6,Cc1c(C(=O)OCC(=O)N(CCC#N)c2ccccc2)oc2c1ccc1ccccc12,"inconclusive: 29.1 µM [inhibitor, single point]"
7,CCn1nc(C(=O)NCC(c2cccs2)N2CCOCC2)c2ccccc2c1=O (configuration not stated),"inconclusive: 12.6 µM [inhibitor, partial curve]"
8,COc1ccc(Nc2ccnc3ccccc23)cc1,inactive
9,Cc1cccc(NS(=O)(=O)c2ccc(Oc3ccccc3)cc2)n1,"inconclusive: 14.6 µM [inhibitor, partial curve, poor fit]"
10,CC1CCN(c2ccc(NC(=O)c3ccc([N+](=O)[O-])o3)cc2)CC1,"inconclusive: 17.8 µM [inhibitor, single point]"
11,Cn1ncc(C(=O)N2CCN(c3ccc(F)cc3)CC2)c1C1CCN(C(=O)OC(C)(C)C)CC1,"inconclusive: 1.41 µM [inhibitor, full curve, poor fit]"
12,COc1ccc(OCC(=O)N2CCN(Cc3ccc(SC)cc3)CC2)cc1,"inconclusive: 12.6 µM [inhibitor, single point] and inconclusive: 35.5 µM [inhibitor, partial curve, poor fit]"
13,CCCN1C(=O)C(Cc2nc3ccccc3c(=O)n2-c2cccc(C)c2)c2ccccc21 (configuration not stated),inactive
14,CCOC(=O)c1c(-n2c(C)cc(/C=C3\C(=O)NC(=O)N(C)C3=O)c2C)sc2c1CCCC2,"inconclusive: 0.259 µM [inhibitor, full curve, poor fit]"
15,Nc1nonc1C(=O)N/N=C/c1ccc(-c2cccc([N+](=O)[O-])c2)o1,"inconclusive: 1.26 µM [activator, single point]"
16,CCCC(=O)Nc1ccc(-c2nc3cc(C)c(C)cc3o2)cc1,inactive
17,O=C1OC(C(=O)Nc2ccc(Cl)c(C(F)(F)F)c2)Cc2ccccc21 (configuration not stated),"inconclusive: 35.5 µM [activator, single point]"
18,Cc1ccc(NC(=O)c2ccc(NCCc3ccccc3)c([N+](=O)[O-])c2)cc1F,"inconclusive: 35.5 µM [inhibitor, single point]"
19,COc1ccc(NS(=O)(=O)c2cc(NC(=O)Cc3cccs3)ccc2C)cc1,active: 1.84 µM
20,NS(=O)(=O)c1ccc(N/N=C/c2cn(-c3ccccc3)nc2-c2cccs2)cc1,"inconclusive: 35.5 µM [inhibitor, single point]"
21,COCCCN(C(=O)c1ccc(N2CCCC2=O)cc1)c1c(N)n(Cc2ccccc2)c(=O)[nH]c1=O,inactive
22,CC(C)(C)OC(=O)N1CCC(c2nnc(SCc3ccccc3)o2)CC1,"inconclusive: 25.1 µM [inhibitor, single point]"
23,C[C@@H]1C=C[C@](Cc2ccccc2)(C(=O)NCCc2c[nH]c3ccccc23)N1C(=O)c1ccccc1,active: 8.2 µM

row,Structure (SMILES),Potency
1,O=C(Nc1cc(Cl)ncn1)c1ccccc1,inactive
2,CCCSc1nsc(NC(=O)CCC)n1,"inconclusive: 17.8 µM [inhibitor, single point]"
3,O=C(CSc1ccc(-c2ccccn2)nn1)NC1CCCCC1,"inconclusive: 7.08 µM [inhibitor, full curve, poor fit]"
4,COCCN(CCOC)Cc1cc(=O)oc2ccccc12,"inconclusive: 0.353 µM [activator, full curve, poor fit]"
5,COc1nc(-c2ccc(C)cc2)ccc1-c1noc(-c2ccco2)n1,inactive
6,O=C(c1cccnc1)N1CCN(S(=O)(=O)c2ccc3ccccc3c2)CC1,"inconclusive: 0.0052 µM [inhibitor, partial curve, poor fit]"
7,Cc1cc(NC(=O)C(C)C)ncc1NC(=O)c1cccc(F)c1,inactive
8,COc1ccc(CNc2nc3c(c(=O)n(C)c(=O)n3C)n2Cc2ccccc2Cl)cc1,"inconclusive: 35.5 µM [activator, single point]"
9,O=C(Nc1nccs1)c1ccc(Cl)c(S(=O)(=O)N2CCCCC2)c1,"inconclusive: 35.5 µM [inhibitor, single point]"
10,COc1ccc(-c2noc(-c3ccccc3-c3ccccc3)n2)cc1,inactive
11,COc1ccc(NCc2n[nH]nc2-c2ccccc2)cc1Cl,"inconclusive: 11.6 µM [inhibitor, partial curve, poor fit]"
12,CN(C)C(=O)Oc1ccc(Br)c2ccccc12,inactive
13,COc1cc(CCC(=O)OCC(=O)Nc2c(Cl)cccc2Cl)cc(OC)c1OC,inactive
14,Cc1ccc(C(=O)n2nc(C)c(S(=O)(=O)N3CCCCCC3)c2C)cc1,inactive
15,COc1cc2cc(-c3ccc(OC)c(OC)c3C)nc(N)c2cc1OC,"inconclusive: 3.55 µM [inhibitor, single point]"
16,COc1cc(C(=O)N/N=C(\Cc2ncc[nH]2)c2ccccc2)cc(OC)c1OC,"inconclusive: 17.8 µM [inhibitor, single point]"
17,Cc1ccc(-c2nnc(N3CCC(C)CC3)c3ccccc23)cc1C,inactive
18,O=C(NC(=S)NCc1ccccc1)C1CCCCC1,"inconclusive: 10 µM [inhibitor, partial curve]"
19,Cc1cccc(N(CC(=O)NCc2ccc3c(c2)OCO3)C(=O)CCC(=O)Nc2ccccn2)c1,"inconclusive: 10 µM [inhibitor, partial curve]"
20,Cc1ccc(-c2nn3c(C)nnc3s2)cc1NC(=O)c1ccc(-c2ccc(Cl)cc2Cl)o1,"inconclusive: 13 µM [inhibitor, partial curve, poor fit]"
21,CCN(CC)C(=O)Cn1cnc2sc(C(=O)N3CCN(Cc4ccc5c(c4)OCO5)CC3)c(C)c2c1=O,"inconclusive: 0.355 µM [inhibitor, full curve, poor fit]"
22,CCn1c(-c2ccc(S(=O)(=O)N3CCOCC3)cc2)csc1=Nc1ccc(C)c(Cl)c1,"inconclusive: 0.562 µM [inhibitor, full curve, poor fit]"
23,CCc1ccc(CN(C)C(C)C(=O)NCc2ccccc2)cc1 (configuration not stated),"inconclusive: 10 µM [inhibitor, partial curve, poor fit]"

row,Structure (SMILES),Potency
1,CCc1cccc(CC)c1N(COC)C(=O)CCl,"inconclusive: 10 µM [inhibitor, partial curve, poor fit]"
2,CCN(CC)CCN(C(=O)c1ccc2c(c1)OCCO2)c1nc2cc(C)cc(C)c2s1,inactive
3,Cc1ccnc(NC(=O)c2sc3ccccc3c2Cl)c1,"inconclusive: 4.47 µM [inhibitor, full curve, poor fit]"
4,Cc1ccc(C2=CC(c3c(F)cccc3Cl)n3ncnc3N2)cc1C (configuration not stated),inactive
5,COc1ccc2[nH]c3c(NCCC4=CCCCC4)ncnc3c2c1,"inconclusive: 14.1 µM [inhibitor, single point]"
6,COc1ccc(Cl)cc1NC(=O)CCCN1C(=O)C(c2ccccc2)Oc2cccnc21 (configuration not stated),inactive
7,COc1ccc(NC(=O)c2cc3c(=O)n(Cc4cccnc4)ccc3nc2C)cc1OC,"inconclusive: 35.5 µM [activator, single point]"
8,C#CCOCCOCCOCCNc1nc(N2CCN(C(=O)Cn3cc(CC(C)O)nn3)CC2)nc(N2CCN(C(=O)Cn3cc(CC(C)O)nn3)CC2)n1 (configuration not stated),"inconclusive: 20.6 µM [activator, partial curve, poor fit]"
9,COc1cc2c(cc1OC)C(COc1cc(C)cc(C)c1)N(C(=O)COc1ccccc1)CC2 (configuration not stated),"inconclusive: 7.08 µM [inhibitor, full curve, poor fit]"
10,NS(=O)(=O)c1ccc(CCNC(=O)c2cc(-c3ccccc3)nc3ccccc23)cc1,"inconclusive: 23.1 µM [inhibitor, single point]"
11,Cc1cc(C)c(C#N)c(SCc2nc3ccccc3[nH]2)n1,"inconclusive: 1.78 µM [activator, full curve, poor fit]"
12,Nc1nc(CSC(=S)N2CCOCC2)nc(Nc2ccc(F)cc2)n1,inactive
13,CCSc1nnc(NC(=O)NC(CC)(C(F)(F)F)C(F)(F)F)s1,"inconclusive: 35.5 µM [inhibitor, single point]"
14,COc1ccc(NC(=O)CSc2nc3nc(C)c(Cc4ccccc4Cl)c(C)n3n2)cc1OC,"inconclusive: 25.1 µM [activator, single point]"
15,COc1ccccc1N(CC(=O)N/N=C(\C)c1ccccc1O)S(=O)(=O)c1ccc(C)cc1,"inconclusive: 5.62 µM [inhibitor, full curve]"
16,Cc1nncn1-c1ccc(C(=O)Nc2cc(F)ccc2F)cc1,inactive
17,Cc1ccc(NC(=O)C2CCC(N3C(=O)C4CCCCC4C3=O)CC2)cc1 (configuration not stated),"inconclusive: 35.5 µM [inhibitor, partial curve, poor fit]"
18,COc1ccc(N/C=C/c2nc(SC)nnc2C)cc1,inactive
19,Cc1ccc(/C=N/Nc2ccc(C(=O)O)cc2)s1,active: 1.12 µM
20,CN(C)S(=O)(=O)c1cccc(NC(=O)c2cc(-c3cccs3)nn2-c2ccccc2)c1,"inconclusive: 14.6 µM [inhibitor, partial curve, poor fit]"
21,COc1ccc(N2CCN(C(=O)[C@H](C)N3C(=O)C4CC=CCC4C3=O)CC2)cc1 (some centres not stated),"inconclusive: 0.562 µM [inhibitor, full curve, poor fit]"

# Compounds listed so far that contain a cyano group:
row,Structure (SMILES),Potency
6,Cc1c(C(=O)OCC(=O)N(CCC#N)c2ccccc2)oc2c1ccc1ccccc12,"inconclusive: 29.1 µM [inhibitor, single point]"
11,Cc1cc(C)c(C#N)c(SCc2nc3ccccc3[nH]2)n1,"inconclusive: 1.78 µM [activator, full curve, poor fit]"

# An excerpt of these results, bar-delimited.
row | Structure (SMILES) | Potency
23 | C[C@@H]1C=C[C@](Cc2ccccc2)(C(=O)NCCc2c[nH]c3ccccc23)N1C(=O)c1ccccc1 | active: 8.2 µM
1 | O=C(Nc1cc(Cl)ncn1)c1ccccc1 | inactive
